B1: FLAG-Mad1 C-terminal domain (CTD, residues 597-718) (domain or fragment, UniProt Q9Y6D9 597-718)
chain: SSKEVAELKKQVESAELKNQRLKEVFQTKIQEFRKACYTLTGYQIDITTENQYRLTSLYAEHPGDCLIFKATSPSGSKMQLLETEFSHTVGELIEVHLRRQDSIPAFLSSLTLELFSRQTVA
B2: full-length FLAG-Mad1 (protein, UniProt Q9Y6D9 1-718)
chain: MEDLGENTMVLSTLRSLNNFISQRVEGGSGLDISTSAPGSLQMQYQQSMQLEERAEQIRSKSHLIQVEREKMQMELSHKRARVELERAASTSARNYEREVDRNQELLTRIRQLQEREAGAEEKMQEQLERNRQCQQNLDAASKRLREKEDSLAQAGETINALKGRISELQWSVMDQEMRVKRLESEKQELQEQLDLQHKKCQEANQKIQELQASQEARADHEQQIKDLEQKLSLQEQDAAIVKNMKSELVRLPRLERELKQLREESAHLREMRETNGLLQEELEGLQRKLGRQEKMQETLVGLELENERLLAKLQSWERLDQTMGLSIRTPEDLSRFVVELQQRELALKDKNSAVTSSARGLEKARQQLQEELRQVSGQLLEERKKRETHEALARRLQKRVLLLTKERDGMRAILGSYDSELTPAEYSPQLTRRMREAEDMVQKVHSHSAEMEAQLSQALEELGGQKQRADMLEMELKMLKSQSSSAEQSFLFSREEADTLRLKVEELEGERSRLEEEKRMLEAQLERRALQGDYDQSRTKVLHMSLNPTSVARQRLREDHSQLQAECERLRGLLRAMERGGTVPADLEAAAASLPSSKEVAELKKQVESAELKNQRLKEVFQTKIQEFRKACYTLTGYQIDITTENQYRLTSLYAEHPGDCLIFKATSPSGSKMQLLETEFSHTVGELIEVHLRRQDSIPAFLSSLTLELFSRQTVA
B3: Mad1 (endogenous) (protein, UniProt Q9Y6D9 1-718)
chain: B2 chain

Protein sequences, listed by entry. Tags and fused reporters are not part of them. Lines headed by an entry give the natural chain unless they say otherwise; changes in a name come on top. Chains listed by the source or under a name are the forms on record and can include a tag or linker. Residues count along the entry.
UniProt P49790: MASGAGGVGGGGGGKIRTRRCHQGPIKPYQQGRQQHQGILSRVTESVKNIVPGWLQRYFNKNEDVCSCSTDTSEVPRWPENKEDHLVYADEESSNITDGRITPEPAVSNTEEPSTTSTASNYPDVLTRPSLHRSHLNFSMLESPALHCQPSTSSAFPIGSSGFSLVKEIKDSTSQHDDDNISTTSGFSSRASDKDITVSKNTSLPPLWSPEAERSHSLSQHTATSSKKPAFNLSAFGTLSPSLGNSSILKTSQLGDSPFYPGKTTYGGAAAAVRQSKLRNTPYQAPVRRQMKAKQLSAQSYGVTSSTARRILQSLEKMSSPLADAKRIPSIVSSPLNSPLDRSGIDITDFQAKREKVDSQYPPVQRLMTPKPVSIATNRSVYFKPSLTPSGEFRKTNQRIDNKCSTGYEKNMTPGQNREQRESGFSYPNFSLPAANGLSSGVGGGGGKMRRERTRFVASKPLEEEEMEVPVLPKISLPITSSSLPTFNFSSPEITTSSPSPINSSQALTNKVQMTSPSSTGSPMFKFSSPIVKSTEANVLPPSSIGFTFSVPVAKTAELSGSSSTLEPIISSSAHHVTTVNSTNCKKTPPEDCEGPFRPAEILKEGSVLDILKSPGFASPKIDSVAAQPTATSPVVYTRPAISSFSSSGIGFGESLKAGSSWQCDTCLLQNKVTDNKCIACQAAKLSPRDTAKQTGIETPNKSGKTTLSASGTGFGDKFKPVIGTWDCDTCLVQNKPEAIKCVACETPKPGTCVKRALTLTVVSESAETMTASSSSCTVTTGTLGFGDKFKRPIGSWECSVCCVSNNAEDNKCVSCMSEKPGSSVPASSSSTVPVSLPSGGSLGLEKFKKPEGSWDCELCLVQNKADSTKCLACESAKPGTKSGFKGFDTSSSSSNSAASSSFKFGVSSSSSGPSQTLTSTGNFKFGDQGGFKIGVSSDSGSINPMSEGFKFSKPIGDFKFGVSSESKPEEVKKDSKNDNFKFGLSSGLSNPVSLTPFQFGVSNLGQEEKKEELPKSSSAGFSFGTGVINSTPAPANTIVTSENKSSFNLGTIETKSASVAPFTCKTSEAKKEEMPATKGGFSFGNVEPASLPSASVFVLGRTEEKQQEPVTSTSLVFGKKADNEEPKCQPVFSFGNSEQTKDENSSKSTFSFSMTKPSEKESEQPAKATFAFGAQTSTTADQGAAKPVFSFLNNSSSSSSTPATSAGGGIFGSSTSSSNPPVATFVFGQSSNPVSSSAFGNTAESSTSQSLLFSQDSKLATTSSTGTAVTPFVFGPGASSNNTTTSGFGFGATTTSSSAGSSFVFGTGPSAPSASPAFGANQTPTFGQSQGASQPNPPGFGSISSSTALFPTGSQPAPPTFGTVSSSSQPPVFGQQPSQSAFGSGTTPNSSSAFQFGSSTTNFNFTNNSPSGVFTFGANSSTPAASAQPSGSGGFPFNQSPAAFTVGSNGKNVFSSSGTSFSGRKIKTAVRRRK
GST-Nup153-N (N-terminal part of Nup153, residues 2-610, fused to GST): residues 2-610 of P49790
UniProt O14777: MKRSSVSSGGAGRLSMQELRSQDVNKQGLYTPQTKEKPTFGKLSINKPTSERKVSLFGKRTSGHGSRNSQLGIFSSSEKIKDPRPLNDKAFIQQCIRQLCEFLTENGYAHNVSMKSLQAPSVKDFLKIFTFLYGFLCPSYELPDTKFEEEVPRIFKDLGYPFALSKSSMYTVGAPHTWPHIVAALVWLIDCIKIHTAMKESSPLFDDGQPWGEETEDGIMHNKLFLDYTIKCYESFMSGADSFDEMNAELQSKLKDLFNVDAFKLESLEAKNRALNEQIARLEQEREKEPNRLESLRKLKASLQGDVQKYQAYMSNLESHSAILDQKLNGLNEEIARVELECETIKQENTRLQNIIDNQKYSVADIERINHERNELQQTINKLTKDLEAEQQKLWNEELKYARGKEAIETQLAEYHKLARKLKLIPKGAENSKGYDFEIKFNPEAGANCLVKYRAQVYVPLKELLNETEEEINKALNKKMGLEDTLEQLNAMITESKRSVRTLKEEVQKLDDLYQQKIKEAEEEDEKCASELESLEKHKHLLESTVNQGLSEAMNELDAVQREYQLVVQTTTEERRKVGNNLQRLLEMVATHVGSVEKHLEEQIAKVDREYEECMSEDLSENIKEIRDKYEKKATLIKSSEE

No constants are given. Whether binding was seen depends on the method and setting. Binding seen in cells or lysates may run through a third protein. Some results given as binding are weak or reduced against the parent protein; the word gives no strength. For some of these results: Where a sequence is shown, tags or fusion partners need not be part of it.

The target in the first experiment is Nup153 (endogenous) (human (endogenous in HeLa)) (UniProt P49790). Put plainly: proximity ligation.
“outer kinetochore protein Hec1 (endogenous) (from UniProt O14777 1-642)”: the binding result was “no binding”.

Another experiment addresses GST-Nup153-N (N-terminal part of Nup153, residues 2-610, fused to GST) (human) (UniProt P49790). Nature of the experiment: pull-down.
For the molecule “FLAG-Mad1 residues 1-120 (from UniProt Q9Y6D9 1-120) (domain or fragment)”, the binding entry is “no binding”.
Same read-out and setting: with “FLAG-Mad1 residues 1-240 (from UniProt Q9Y6D9 1-240) (domain or fragment)” the entry was “binds”; with “FLAG-Mad1 residues 1-539 (from UniProt Q9Y6D9 1-539) (domain or fragment)”, “binds”.
The same measure, in the same setting: in the case of “FLAG-Mad1 residues 121-240 (from UniProt Q9Y6D9 121-240) (domain or fragment)” it was “binds”.
As for “FLAG-Mad1 residues 241-539 (from UniProt Q9Y6D9 241-539) (domain or fragment)”, the binding result is given as “no binding”.
Same read-out and setting: with “FLAG-Mad1 residues 241-596 (from UniProt Q9Y6D9 241-596) (domain or fragment)” the entry was “binds”.
For the molecule “FLAG-Mad1 residues 540-718 (from UniProt Q9Y6D9 540-718) (domain or fragment)”, the binding result was “binds”.
On to “FLAG-Mad1 residues 552-718 (lacking the MIM domain) (from UniProt Q9Y6D9 552-718) (domain or fragment)”, for which the binding entry is “binds”.
Consider “FLAG-Mad1-N596 (N-terminal domain of Mad1, residues 1-596) (from UniProt Q9Y6D9 1-596) (domain or fragment)”, for which the binding result is listed as “binds”.
With B1, the binding result is reported as “no binding”.
Same read-out and setting: in the case of B2 it was “binds”.

Another experiment addresses Nup153 (endogenous) (human (endogenous in HeLa)) (UniProt P49790). Put plainly: proximity ligation. The source holds these as a separate data set.
B3: the binding entry is “binds”.

These data come from doi:10.1101/2020.05.20.106567.
